Measured values as given in US20100168016A1, “DIAGNOSIS AND TREATMENT OF DISEASES CAUSED BY MISFOLDED PROTEINS” (THE JACKSON LABORATORY, priority 2007, published 2010).
At least one structure is not confirmed: it was looked up by name or label, or the drawing left a doubt.

Test system: HA-ANKRD16^CAST-transfected COS-7 cells
Experiment: subcellular localization of ANKRD16 in transfected COS-7 cells
Assay type: cell-based, monkey
Conditions: 1004 rapamycin for 24 hours, 24 hours post-transfection
Method: Cellular localization of full-length ANKRD16 was determined by transfection of epitope-tagged full-length ANKRD16^CAST into monkey kidney fibroblast COS-7 cells and human alveolar epithelial A549 cells. The ANKRD16 coding sequence was amplified by polymerase chain reaction from cDNA by using Pfu DNA polymerase (Stratagene), purified by agarose gel electrophoresis and ligated in-frame with the HA-tag into the pcDNA3 vector. This clone encoded a fusion ANKRD16 with the tag at its C-terminus. All DNA constructs were confirmed by sequencing. COS-7 and A549 cells were maintained in Dulbecco's modified Eagle's medium (Sigma-Aldrich). All cells were grown at 37° C. in 5% CO2 and supplemented with 10% (vol/vol) fetal calf serum, 100 U/ml penicillin and 100 μg/ml streptomycin. Transfections were performed using Lipofectamine 2000 transfection reagent (Invitrogen, USA) according to the manufacturer's protocol. Cells were cultured for 48 h after transfection. […]
For immunostaining the cells were fixed with 4% paraformaldehyde (PFA) at room temperature for 5 min, then incubated with anti-ubiquitin, anti-HA, anti-r-tubulin, and anti-vimentin antibodies overnight at 4° C. […] The fluorescence was detected under a fluorescence microscope.

CO[C@H]1C[C@@H]2CC[C@@H](C)[C@@](O)(O2)C(=O)C(=O)N2CCCC[C@H]2C(=O)O[C@H]([C@H](C)C[C@@H]2CC[C@@H](O)[C@H](OC)C2)CC(=O)[C@H](C)/C=C(\C)[C@@H](O)[C@@H](OC)C(=O)[C@H](C)C[C@H](C)/C=C/C=C/C=C/1C [rapamycin]
subcellular localization of ANKRD16: does not alter the subcellular localization of ANKRD16
